Experimental data from US20170189504A1, “NOVEL PEPTIDES AND COMBINATION OF PEPTIDES FOR USE IN IMMUNOTHERAPY AGAINST VARIOUS CANCERS” (immatics biotechnologies GmbH, priority 2015, published 2017).

Test system: HLA-A*02
Assay: Identification and relative LC-MS quantitation of HLA-A*02-presented tumor-associated peptides on tissue samples (presentation profiles, Tables 13A, 13B, 15, FIG. 1)
Set-up: species or system human; key to Presentation score NHL / Presentation score CLL / Presentation score BRCA / Presentation score AML / Presentation score GB / Presentation score NSCLC / Presentation score GBC_CCC / Presentation score UEC / Presentation score MEL / Presentation score OSCAR / Presentation score GC / Presentation score UBC / Presentation score OC / Presentation score RCC / Presentation score CRC / Presentation score PCA / Presentation score HCC / Presentation score PC / Presentation score SCLC: specifically presented on tumors (++++); very highly over-presented on tumors compared to a panel of normal tissues (+++); highly over-presented on tumors compared to a panel of normal tissues (++); over-presented on tumors compared to a panel of normal tissues (+)
Details: for Presentation score OSCAR: esophageal cancer, including cancer of the gastric-esophageal junction (N = 17) vs panel of normal tissues (N = 262); for Presentation score NSCLC: non-small cell lung cancer (N = 90) vs panel of normal tissues (N = 262); for Presentation score OC: ovarian cancer (N = 20) vs panel of normal tissues (N = 262); for Peptide Presentation on cancer entities: HLA-A*02-binding tumor-associated peptides; for Presentation score CLL: chronic lymphocytic leukemia (N = 17) vs panel of normal tissues (N = 262); for Presentation score NHL: non-Hodgkin lymphoma (N = 18) vs panel of normal tissues (N = 262); for Presentation score AML: acute myeloid leukemia (N = 18) vs panel of normal tissues (N = 262); for Presentation score MEL: melanoma (N = 7) vs panel of normal tissues (N = 262); for Presentation score CRC: colorectal cancer (N = 28) vs panel of normal tissues (N = 262); for Presentation score GB: glioblastoma (N = 41) vs panel of normal tissues (N = 262)
[1] = Table 13A, cancer entities on which the peptide was found presented
[2] = Table 13B, presentation on additional cancer entities
[3] = FIG. 1, A*02 positive samples, only samples with presentation shown

Substance	Presentation score NSCLC (HLA-A*02 peptides)	Peptide Presentation on cancer entities [1]	Peptide Presentation on cancer entities [2]	Presentation score NHL (HLA-A*02 peptides)	further results
244 (YLLEKNRVV; listed as Homo sapiens) [compound 244]	++++	NSCLC, OSCAR, OC	HNSCC		Presentation score OSCAR (HLA-A*02 peptides): ++++; Presentation score OC (HLA-A*02 peptides): ++++
245 (SLLDLPLSL; listed as Homo sapiens) [compound 245]		CLL, NHL	NSCLC, RCC, AML, HNSCC	++++	Presentation score CLL (HLA-A*02 peptides): ++++
248 (YLDRFLAGV; listed as Homo sapiens) [compound 248]		GB, NSCLC, PCA, CLL, CRC, AML, NHL	SCLC, HNSCC		Presentation score AML (HLA-A*02 peptides): +
250 (SLAPATPEV; listed as Homo sapiens) [compound 250]		MEL, NHL	BRCA, HNSCC		
252 (RLMEICESL; listed as Homo sapiens) [compound 252]		AML	UEC, MEL		Presentation score AML (HLA-A*02 peptides): ++++
255 (SLLHFTENL; listed as Homo sapiens) [compound 255]		AML, NHL	NSCLC, CRC	++++	Presentation score AML (HLA-A*02 peptides): ++++
256 (SLGEEQFSV; listed as Homo sapiens) [compound 256]		MEL, NHL		++++	Presentation score MEL (HLA-A*02 peptides): ++++
257 (GLYTDPCGV; listed as Homo sapiens) [compound 257]	++++	NSCLC, NHL	HNSCC	++++	
259 (ILLPRIIEA; listed as Homo sapiens) [compound 259]	++++	NSCLC, OC	GB, GC, CLL, SCLC, UEC, BRCA, MEL, CRC, PC, HNSCC		number of cancer tissues where the peptide was found to be presented [3]: 27; number of cell lines where the peptide was found to be presented [3]: 1; Presentation score OC (HLA-A*02 peptides): ++++
261 (QLQDRVYAL; listed as Homo sapiens) [compound 261]	+	NSCLC, HCC, CLL, OSCAR, OC, SCLC, UBC, BRCA, RCC, CRC, NHL	MEL	+	Presentation score CRC (HLA-A*02 peptides): +; Presentation score OC (HLA-A*02 peptides): +
262 (FMVDKAIYL; listed as Homo sapiens) [compound 262]	+++	GC, NSCLC, PCA, OSCAR, OC, SCLC, BRCA, GBC_CCC, CRC, PC, NHL	UEC, MEL, HNSCC	+++	Presentation score BRCA (HLA-A*02 peptides, breast cancer (N = 17) vs panel of normal tissues (N = 262)): +; Presentation score CRC (HLA-A*02 peptides): ++; Presentation score GBC_CCC (HLA-A*02 peptides, gallbladder adenocarcinoma and cholangiocarcinoma (N = 6) vs panel of normal tissues (N = 262)): +; Presentation score PCA (HLA-A*02 peptides, prostate cancer and benign prostate hyperplasia (N = 39) vs panel of normal tissues (N = 262)): +; Presentation score SCLC (HLA-A*02 peptides, small cell lung cancer (N = 19) vs panel of normal tissues (N = 262)): +++
263 (VLLSEQGDVKL; listed as Homo sapiens) [compound 263]	+++	NSCLC, PCA, CLL, OSCAR, OC, MEL, NHL	UEC, AML	+	Presentation score CLL (HLA-A*02 peptides): +; Presentation score OSCAR (HLA-A*02 peptides): +; Presentation score MEL (HLA-A*02 peptides): +
264 (KLFPQETLFL; listed as Homo sapiens) [compound 264]	+	NSCLC, CLL, OSCAR, AML, NHL			Presentation score AML (HLA-A*02 peptides): +; Presentation score CLL (HLA-A*02 peptides): +
265 (NTCPYVHNI; listed as Homo sapiens) [compound 265]		GB, CLL			Presentation score CLL (HLA-A*02 peptides): +; Presentation score GB (HLA-A*02 peptides): +++
266 (YAIGLVMRL; listed as Homo sapiens) [compound 266]		CLL, BRCA, AML	HCC, GBC_CCC, MEL		Presentation score AML (HLA-A*02 peptides): +++; Presentation score CLL (HLA-A*02 peptides): +
293 (FLVDGSWSI; listed as Homo sapiens) [compound 293]					Presentation score GB (HLA-A*02 peptides): ++++
305 (KLFTSVFGV; listed as Homo sapiens) [compound 305]			AML		number of cancer tissues where the peptide was found to be presented [3]: 5
